Source: PubChem BioAssay AID1159506 (NCATS, 2015).

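Genome-wide siRNA knockdown in TC32 Ewing sarcoma cells, comparing luciferase light from an NR0B1-promoter reporter with a CMV-promoter reporter 48 hours after transfection. Each siRNA was applied at 20 nM. A z-score of the log NR0B1-over-CMV signal, less the median of siRNAs with the same seed; more negative means a stronger specific loss of the NR0B1 reporter.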

This is part of the screen; most of the strongest results are not listed here. Sequences are the guide (antisense) strand, without overhang.

strand	target gene	seed-corrected z-score
UAUCUAGUUAGAGAAACGG	SPATS2L	-0.9328
UUUCUGAGCAAGAAAUAGC	OR14A16	0.7155
UUACGGUAUACCAAGAAAC	BRPF1	-0.3166
ACAUAGAUACCGAUAUUCC	EYS	-0.05436
UGAAGAUCUAGAAUUGAUG	KERA	1.18
UUCGUUCUCUGGAAGUAGG	C19orf18	-1.469
UAGGCGAACAGCACAUUGG	ZNHIT2	-0.1175
UCCAUGACCAAGUUCCACU	TSPAN16	-0.2718
UUCAUCGUGAGUGUCAGCC	SERPINA1	0.3319
AUAGAAAUAGCGGUCCUUG	ZG16B	0.371
UUGAGGAUUAAGAUAGCUG	FBXL5	-0.8987
UCACGUACAAGCUUCUUCC	AKAP13	-0.619
AUAAUCAUUAGUGAGUUUG	SERPINB13	-0.5322
ACUUUGACUACUUGCAGCC	TEX9	-0.2982
AAAGUUCUCGUUGAUAUUU	DNPEP	-0.3103
UUUGUAGUUAUCAAUUUCC	ERC1	0.01633
UAAGCAACACUAGCUAGAG	ABI1	0.9268
UAGUAGGUGAUGAGGAUCU	PCNX3	-1.421
UUCUCUUCGAUGCGCUCCC	FGF22	-0.2607
UCUGGAAUAGUUUAGGGCU	MRGPRD	0.4731
ACUGGUAUUCCAUUUCUGC	CCDC183	0.5089
UAUGCUCACGUUCCAGAGC	MUC5AC	0.6426
UCGCUUUAACAUUAUAGUC	IFIT1B	0.7183
UUAGUUUUAAGACUAGAAA	NRARP	1.348
UUGGUAUCUACAUCAACAC	DENND4A	-0.3079
UCAGAAGAAGCUUUAAUGG	SCGB3A2	0.3859
UUACGUUUCUCCUCAAUCC	RELA	0.09852
ACAGUUGCUAGUUUGAGGC	HEXIM1	-0.8208
ACCUUUGACGCCUUGAACU	LOC440292	0.1153
UAAAUGACCAGUCCAUAGC	ATP8B3	0.09528
CUGAAUUCGUCCCAACUCC	NOXO1	1.041
UAUCCGUCCAGCUAUCAGG	SLC5A4	-0.4087
UAUAAAAUGACAGCCUUGG	WRNIP1	-1.319
UUCGUUUCUUUUCUAGGUC	ANK2	1.572
UGCCUAUUAUCUGAGCUCC	NPHS1	-0.4414
UUCGUAUACAGACUGGAUG	ACLY	0.3808
UUCAGACUUCUUCUUGUGC	C8orf46	0.1598
UAUAUUCAUAAAGGUAUCU	TUSC1	-0.268
UCCUCCAACACGAUGUCCC	MOCS1	0.07779
UCGAGGAAAAGCUGGAUCC	ABCC10	-0.3859
UUCCCUUCCGGGUUGUCUU	CSAG3	-0.2207
UACUGCACCGACUCCGUCU	NOL12	-0.382
UUCCAGAUCUUCGUAGAGC	VHL	-0.5874
AACUUUACCCGGAUCGUCU	LSM7	-1.105
UGACAAUCCACCUUCAGUC	EYA1	-0.6306
UGGGUUCUGAGGUUGAAGG	MSL2	0.4742
AACAUAUGCCUUGUUCUCC	RPL23AP82	0.7375
UCUUAGUCCAGGUGGAUUC	DIEXF	0.7419
AAAGAUGUCACGGCUGCGC	TSSC4	1.196
UUUAUCUACCGAGUAUCUG	OR4K13	0.003858
AUAGUCUCUCCGGCAGAGC	LMO2	-1.62
UGAACUCAAAAUCACCUCC	LAPTM4BP1	-1.331
UUGUCCAAGAGAGAAAUUC	GORASP1	-1.675
ACUGCGUAAAGAGUGAUUC	CCKBR	-0.1277
AAGUUUGCAUGUUAUAGGC	HOXC5	-0.2272
UUACUUUCCAUUACAUUUU	ASCL4	-0.2043
UUAGUUAUUCGCAUUGCUG	TRIM38	-0.7313
AGAGGACUGGCAUCUCACG	KRTAP12-1	-0.5775
AGAUUCAUGAACACGGUGC	ISG15	0.7384
AAAGGGAUCCAUGCACUUC	WFDC8	-0.5837
UAGCUUGUUAUUGACCUUC	HRASLS5	-0.6476
AAUAUGGUCAUGAAUUGUG	LRRC4	0.8738
UUGGGUAGUUCUUAAAUCG	PIFO	-1.393
UUUGUUUGGUUCCAGGUGC	DTWD1	0.6788
AAUGAUAUUGUCGUCGUGC	PEX3	0.1903

The last 7 entries again:

strand,target gene,seed-corrected z-score
AGAUUCAUGAACACGGUGC,ISG15,0.7384
AAAGGGAUCCAUGCACUUC,WFDC8,-0.5837
UAGCUUGUUAUUGACCUUC,HRASLS5,-0.6476
AAUAUGGUCAUGAAUUGUG,LRRC4,0.8738
UUGGGUAGUUCUUAAAUCG,PIFO,-1.393
UUUGUUUGGUUCCAGGUGC,DTWD1,0.6788
AAUGAUAUUGUCGUCGUGC,PEX3,0.1903